Data source: PubChem BioAssay AID1053208 (Peter MacCallum Cancer Centre, 2014)
Here is a random part of about 17,000 reagents tested. In the full data, 788 (4.7%) got an active call. 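Calls rest on z-score classes alone; an extra cut-off of viability at most 70% of control was not applied to them.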 Entries without a mark were called inactive.

Aim: 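Genes whose silencing cuts survival of bone tumour cells only with doxorubicin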 (primary screen)
Cell system: mouse osteosarcoma cells, early-passage culture from an engineered mouse model of fibroblastic bone tumour
Reagents: siRNA pool against mouse genes, 40 nM
Time to read-out: about 120 h (48 h before drug, then 72 h with drug)
Treatment: doxorubicin 100 nM for 72 h, roughly 30-40% inhibitory dose
Measured: 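Viability read as ATP luminescence after 72 h of 100 nM doxorubicin or none, duplicate wells averaged, scaled to non-targeting siRNA, then expressed as robust z-scores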
Direction: viability z-score with doxorubicin and doxorubicin viability vs non-targeting: higher = more viable cells under doxorubicin; viability z-score without drug: higher = more viable cells with knock-down alone; z-score of drug to no-drug ratio: higher = less drug sensitisation by knock-down
Rule for the call: 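a pool counts as active when its viability z-score with doxorubicin is -2 or below and its z-score without drug lies between -2 and 2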

| gene knocked down | combined z-score class | viability z-score with doxorubicin | viability z-score without drug | z-score of drug to no-drug ratio | doxorubicin viability vs non-targeting |
| --- | --- | --- | --- | --- | --- |
| Utrn (utrophin) | no change with or without drug | -0.22 | -0.34 | 0.11 | 0.92 |
| Adam9 (ADAM metallopeptidase domain 9) | no change with or without drug | -0.56 | -0.51 | -0.11 | 0.89 |
| Pbx1 (pre B cell leukemia homeobox 1) | no change with or without drug | 0.67 | -0.51 | 1.24 | 1 |
| BC051019 (cDNA sequence BC051019) | no change with or without drug | -1.12 | -0.34 | -0.9 | 0.84 |
| Eif4e2 (eukaryotic translation initiation factor 4E member 2) | no change with or without drug | -1.12 | 0.51 | -1.35 | 0.84 |
| Top2a (topoisomerase (DNA) II alpha) | high cell count with doxorubicin only | 2.36 | 0.51 | 2.14 | 1.15 |
| 2900060N12Rik (RIKEN cDNA 2900060N12 gene) | no change with or without drug | 1.8 | 1.52 | 0.9 | 1.1 |
| Rgs9 (regulator of G-protein signaling 9) | no change with or without drug | 0 | -0.84 | 0.67 | 0.94 |
| Lancl2 (LanC (bacterial lantibiotic synthetase component C)-like 2) | no change with or without drug | -0.9 | 0.17 | -0.9 | 0.86 |
| Il6st (interleukin 6 signal transducer) | no change with or without drug | -0.34 | 0.17 | -0.34 | 0.91 |
| Cfap74 (cilia and flagella associated protein 74) | no change with or without drug | -1.8 | -1.52 | -0.79 | 0.78 |
| Dcaf17 (DDB1 and CUL4 associated factor 17) | no change with or without drug | 1.12 | -0.17 | 1.46 | 1.04 |
| Rbl2 (RB transcriptional corepressor like 2) | no change with or without drug | 0.9 | 0.17 | 0.9 | 1.02 |
| Smap1 (small ArfGAP 1) | no change with or without drug | -0.67 | -0.51 | -0.22 | 0.88 |
| Or13d1 (olfactory receptor family 13 subfamily D member 1) | no change with or without drug | 0.9 | 1.85 | -0.22 | 1.02 |
| Cap1 (cyclase associated actin cytoskeleton regulatory protein 1) | no change with or without drug | 0.45 | -0.17 | 0.67 | 0.98 |
| Cisd2 (CDGSH iron sulfur domain 2) | no change with or without drug | -1.35 | 0.34 | -1.46 | 0.82 |
| Foxl1 (forkhead box L1) | no change with or without drug | 0 | 0.17 | 0 | 0.94 |
| Arhgap8 (Rho GTPase activating protein 8) | no change with or without drug | 1.91 | 0.34 | 1.8 | 1.11 |
| Sncaip (synuclein, alpha interacting protein (synphilin)) | no change with or without drug | 1.12 | 1.01 | 0.56 | 1.04 |
| Or7g28 (olfactory receptor family 7 subfamily G member 28) | no change with or without drug | -1.12 | -0.84 | -0.56 | 0.84 |
| Ccbe1 (collagen and calcium binding EGF domains 1) | no change with or without drug | 0.22 | 1.18 | -0.45 | 0.96 |
| Gnai2 (G protein subunit alpha i2) | no change with or without drug | -1.12 | -0.51 | -0.79 | 0.84 |
| Hbb-b1 (hemoglobin, beta adult major chain) | no change with or without drug | 0.9 | 0.84 | 0.45 | 1.02 |
| Chrna6 (cholinergic receptor, nicotinic, alpha polypeptide 6) | no change with or without drug | -0.22 | -0.17 | 0 | 0.92 |
| Rpa2 (replication protein A2) | low cell count with and without drug | -7.42 | -5.9 | -5.73 | 0.28 |
| Tamalin (trafficking regulator and scaffold protein tamalin) | no change with or without drug | -0.45 | -1.18 | 0.45 | 0.9 |
| Uckl1 (uridine-cytidine kinase 1-like 1) | no change with or without drug | 1.57 | 1.01 | 1.01 | 1.08 |
| KRT2-18 | low cell count with doxorubicin only (active) | -2.14 | -0.51 | -1.8 | 0.75 |
| Krt75 (keratin 75) | no change with or without drug | 0 | 0 | 0.11 | 0.94 |
| Aste1 (asteroid homolog 1) | no change with or without drug | 1.8 | 0.17 | 1.91 | 1.1 |
| Dimt1 (DIM1 rRNA methyltransferase and ribosome maturation factor) | no change with or without drug | -0.45 | 1.18 | -1.12 | 0.9 |
| Rheb (Ras homolog enriched in brain) | no change with or without drug | 0.67 | 0.34 | 0.56 | 1 |
| Or13c7 (olfactory receptor family 13 subfamily C member 7) | no change with or without drug | -1.12 | -1.52 | 0 | 0.84 |
| Tmub1 (transmembrane and ubiquitin-like domain containing 1) | no change with or without drug | -0.67 | -0.51 | -0.22 | 0.88 |
| Adgrf5 (adhesion G protein-coupled receptor F5) | no change with or without drug | -0.67 | 0.67 | -1.01 | 0.88 |
| 2700050F09RIK | no change with or without drug | 1.12 | 1.18 | 0.45 | 1.04 |
| Svil (supervillin) | no change with or without drug | 0.67 | -0.67 | 1.35 | 1 |
| Hic1 (hypermethylated in cancer 1) | no change with or without drug | 0.67 | 0.17 | 0.67 | 1 |
| Rimoc1 (RAB7A interacting MON1-CCZ1 complex subunit 1) | no change with or without drug | 1.57 | 1.85 | 0.45 | 1.08 |
| Plaat3 (phospholipase A and acyltransferase 3) | no change with or without drug | 1.57 | 1.52 | 0.67 | 1.08 |
| Prkar2b (protein kinase, cAMP dependent regulatory, type II beta) | high cell count without drug only | 1.8 | 2.19 | 0.45 | 1.1 |
| Txn1 (thioredoxin 1) | low cell count with doxorubicin only (active) | -2.7 | -1.69 | -1.8 | 0.7 |
| Rbms2 (RNA binding motif, single stranded interacting protein 2) | no change with or without drug | -1.57 | -0.51 | -1.24 | 0.8 |
| Pdcd6ip (programmed cell death 6 interacting protein) | no change with or without drug | -0.45 | -0.17 | -0.22 | 0.9 |
| Slc30a1 | no change with or without drug | -0.45 | -0.17 | -0.22 | 0.9 |
| B3galnt1 | no change with or without drug | 0 | 0.17 | 0 | 0.94 |
| Golga5 (golgin A5) | no change with or without drug | 0.34 | 0.17 | 0.34 | 0.97 |
| Cenpq (centromere protein Q) | no change with or without drug | 0.45 | 0.51 | 0.22 | 0.98 |
| Gfm1 (G elongation factor, mitochondrial 1) | no change with or without drug | 0.34 | 0.84 | -0.11 | 0.97 |

Called active, among the entries above:
| gene knocked down | combined z-score class | viability z-score with doxorubicin | viability z-score without drug | z-score of drug to no-drug ratio | doxorubicin viability vs non-targeting |
| --- | --- | --- | --- | --- | --- |
| KRT2-18 | low cell count with doxorubicin only (active) | -2.14 | -0.51 | -1.8 | 0.75 |
| Txn1 (thioredoxin 1) | low cell count with doxorubicin only (active) | -2.7 | -1.69 | -1.8 | 0.7 |
